The record followed here is paper PMC9975939.

Protein sequences, listed by entry. Tags and fused reporters are not part of them.
UniProt Q96CV9: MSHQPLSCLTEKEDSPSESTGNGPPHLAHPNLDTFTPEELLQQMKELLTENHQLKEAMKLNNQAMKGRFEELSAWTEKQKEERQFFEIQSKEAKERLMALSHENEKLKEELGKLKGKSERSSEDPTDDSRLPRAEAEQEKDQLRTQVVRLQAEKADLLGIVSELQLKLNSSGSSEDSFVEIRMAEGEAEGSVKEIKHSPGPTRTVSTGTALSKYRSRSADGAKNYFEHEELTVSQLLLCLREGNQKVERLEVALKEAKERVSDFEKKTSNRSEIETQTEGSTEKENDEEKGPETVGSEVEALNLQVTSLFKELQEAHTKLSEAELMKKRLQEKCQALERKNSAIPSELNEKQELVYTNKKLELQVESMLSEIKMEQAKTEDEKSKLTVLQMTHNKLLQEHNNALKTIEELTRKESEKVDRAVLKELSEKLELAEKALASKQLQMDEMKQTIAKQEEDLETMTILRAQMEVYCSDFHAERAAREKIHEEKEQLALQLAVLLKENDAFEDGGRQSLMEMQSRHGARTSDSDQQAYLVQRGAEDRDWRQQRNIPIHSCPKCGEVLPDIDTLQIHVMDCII

These are yes or no findings as the source states them, for the method shown. Binding seen in cells or lysates may run through a third protein.

The experiment addresses OPTN (human (endogenous in HeLa)) (UniProt Q96CV9). Nature of the experiment: condition: only AO/bafilomycin A1 treatment (4 μM/10 μM AO, 400 nM Baf, 3 h); cross-linking; DLC in HeLa cells treated with 4 μM/10 μM AO with or without 400 nM Baf for 3 h; non-reducing SDS-PAGE, immunoblot for OPTN. For orientation: In western blotting, separated proteins are transferred to a membrane and probed.

In the case of OPTN (from UniProt Q96CV9 1-577), the binding result is reported as “no binding”.
